For this test, the system named is CD2F1 mice, L1210 leukemia sc, survival T/C. In words: NCI In Vivo Anticancer Drug Screen. Data for tumor model L1210 Leukemia (subcutaneous) in CD2F1 (CDF1) mice. As to conditions: T/C endpoint: median survival time, higher T/C = longer survival. The gist of the method: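 Read-out: survival or tumor size. Value = treated (T) / vehicle control (C). Transplantable tumor in mice.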

Setting [1] is: dose: 200.0 mg/kg/injection, schedule: Q01DX009 (ip), vehicle: saline.
The mark [2] stands for this setting: dose: 108.0 mg/kg/injection, schedule: Q01DX Z (sc), vehicle: saline.
Where [3] appears, read: dose: 12.5 mg/kg/injection, schedule: Q01DX009 (sc), vehicle: saline.
Where [4] appears, read: dose: 400.0 mg/kg/injection, schedule: Q01DX009 (sc), vehicle: saline.

The list does not hold the whole screen: it gathers tests that were run many times, whatever their T/C, doses with no T/C, and many T/C values between a quarter and a half above the control. Other doses and runs of a compound stand elsewhere. T/C is the treated group as % of the vehicle group. Some entries give survivors of the animals treated and no T/C: the source holds a T/C of zero for them, seemingly a mark for toxic or unscored doses. Some survivor counts are full or nearly so, which does not show that the dose was tolerated: the source hardly ever lists a survival T/C far under the control, and the zero likely stands for such cases as well. Counts of survivors are from the toxicity check (mostly the fifth day) where no day follows; animals may have died later. Schedule codes are those of the source, taken here to give the interval after Q, in days (D) or hours (H), and the number of doses after X. Some doses were run more than once; their values stand side by side, smallest first. Some schedules carry Z or #; the key to these is not given. Some molecules as drawn cover several salts, stereoisomers or complexes of the source; a dose is that of the sample tested. Where survival is the endpoint, this PubChem deposit counts one and a half times the control or more as active, and values a quarter to a half above the control carry no call in these data; other NCI protocols may use other cut-offs. Some T/C values carry the count of animals alive at the toxicity check (mostly the fifth day); without a count, all were alive then. Signs of the kind (2×) give the number of equal values in this list.

`CN1CCN(c2ccc3nc(-c4ccc5nc(-c6ccc(O)cc6)[nH]c5c4)[nH]c3c2)CC1`: the T/C runs as follows: (dose: 12.5 mg/kg/injection, schedule: Q01DX009 (ip), vehicle: saline, evaluated on day 30) 111 and 113 % of control (2×); (dose: 12.5 mg/kg/injection, schedule: Q01DX009 (ip), vehicle: saline, evaluated on day 60) 107 % of control; (dose: 25.0 mg/kg/injection, schedule: Q01DX009 (ip), vehicle: saline, evaluated on day 30) 111, 112, 125 % of control; (dose: 25.0 mg/kg/injection, schedule: Q01DX009 (ip), vehicle: saline, evaluated on day 60) 110 % of control; (dose: 50.0 mg/kg/injection, schedule: Q01DX009 (ip), vehicle: saline, evaluated on day 30) 126, 143, 146 % of control; (dose: 50.0 mg/kg/injection, schedule: Q01DX009 (ip), vehicle: saline, evaluated on day 60) 124 % of control. Further, the T/C runs as follows: (dose: 100.0 mg/kg/injection, schedule: Q01DX009 (ip), vehicle: saline, evaluated on day 30) 146, 146 [5 of 6 alive], 146 % of control [9 of 10 alive]; (dose: 100.0 mg/kg/injection, schedule: Q01DX009 (ip), vehicle: saline, evaluated on day 60) 129 % of control; under setting [1], 146 % of control. Besides, the survivor count is, setting by setting: (dose: 56.0 mg/kg/injection, schedule: Q03HX008 (ip), vehicle: saline) 0 of 10; (dose: 75.0 mg/kg/injection, schedule: Q03HX024 (ip), vehicle: saline) 0 of 10; (dose: 112.0 mg/kg/injection, schedule: Q03HX008 (ip), vehicle: saline) 0 of 10; under setting [1], 1 of 6, 6 of 10, 7 of 10; (dose: 225.0 mg/kg/injection, schedule: Q01DX001 (ip), vehicle: suspension in saline) 6 of 10; (dose: 225.0 mg/kg/injection, schedule: Q03HX008 (ip), vehicle: saline) 0 of 10. The survivor count by setting is: (dose: 300.0 mg/kg/injection, schedule: Q04DX003 (ip), vehicle: saline) 3 of 10; (dose: 450.0 mg/kg/injection, schedule: Q01DX001 (ip), vehicle: suspension in saline) 0 of 10; (dose: 600.0 mg/kg/injection, schedule: Q04DX003 (ip), vehicle: saline) 0 of 10; (dose: 900.0 mg/kg/injection, schedule: Q01DX001 (ip), vehicle: suspension in saline) 0 of 10; (dose: 1800.0 mg/kg/injection, schedule: Q01DX001 (ip), vehicle: suspension in saline) 0 of 10.

As to `Oc1ccc(F)c2cccnc12`, the survivor count reads like this: (dose: 300.0 mg/kg/injection, schedule: Q01DX Z (sc), vehicle: other) 6 of 10; (dose: 500.0 mg/kg/injection, schedule: Q01DX Z (sc), vehicle: other) 4 of 10.

Turning to `Oc1cc(CN(CCCl)CCCl)c(O)cc1CN(CCCl)CCCl`, the survivor count (dose: 300.0 mg/kg/injection, schedule: Q01DX Z (sc), vehicle: methylcellulose (MC)) is on record as 1 of 10 and the survivor count (dose: 500.0 mg/kg/injection, schedule: Q01DX Z (sc), vehicle: methylcellulose (MC)) is reported as 0 of 10.

Regarding `O=C(Nc1ccc(C2=NCCN2)cc1)c1ccc(C(=O)Nc2ccc(C3=NCCN3)cc2)c(Cl)c1`, the survivor count is, setting by setting: (dose: 5.0 mg/kg/injection, schedule: Q01DX Z (sc), vehicle: saline) 2 of 10; (dose: 8.4 mg/kg/injection, schedule: Q01DX Z (sc), vehicle: saline) 1 of 10; (dose: 14.0 mg/kg/injection, schedule: Q01DX Z (sc), vehicle: saline) 2 of 10; (dose: 23.0 mg/kg/injection, schedule: Q01DX Z (iv), vehicle: water) 6 of 10; (dose: 23.0 mg/kg/injection, schedule: Q01DX Z (sc), vehicle: saline) 4 of 10; (dose: 39.0 mg/kg/injection, schedule: Q01DX Z (sc), vehicle: saline) 6 of 10. In addition, the survivor count (dose: 65.0 mg/kg/injection, schedule: Q01DX Z (sc), vehicle: saline) is 5 of 10 and the survivor count under setting [2] is reported as 3 of 10. Also, the T/C (dose: 108.0 mg/kg/injection, schedule: Q01DX Z (sc), vehicle: water) is 133 % of control.

On to `CCOC(C)C(/C=N/NC(N)=S)=NNC(N)=S` (centres undefined), for which the survivor count (dose: 500.0 mg/kg/injection, schedule: Q01DX Z (sc), vehicle: carboxymethylcellulose (CMC)) is 8 of 8.

`O=P1(NCCCl)OCCCN1CCCl` (centres undefined): the survivor count (dose: 6.25 mg/kg/injection, schedule: Q01DX009 (sc), vehicle: saline) was 5 of 10; the survivor count under setting [3] is reported as 5 of 10; the survivor count under setting [4] is recorded as 3 of 6; the survivor count (dose: 600.0 mg/kg/injection, schedule: Q01DX009 (sc), vehicle: saline) is 2 of 6. Besides, the T/C runs as follows: under setting [3], 146 % of control; (dose: 25.0 mg/kg/injection, schedule: Q01DX009 (ip), vehicle: saline) 141 % of control [9 of 10 alive]; (dose: 25.0 mg/kg/injection, schedule: Q01DX009 (sc), vehicle: saline, evaluated on day 30) 138 and 143 % of control; (dose: 25.0 mg/kg/injection, schedule: Q01DX009 (sc), vehicle: saline, evaluated on day 45) 158 % of control; (dose: 25.0 mg/kg/injection, schedule: Q01DX009 (sc), vehicle: saline, evaluated on day 60) 109 % of control [9 of 10 alive]; (dose: 50.0 mg/kg/injection, schedule: Q01DX009 (sc), vehicle: saline, evaluated on day 30) 165 and 195 % of control. In addition, the T/C runs as follows: (dose: 50.0 mg/kg/injection, schedule: Q01DX009 (sc), vehicle: saline, evaluated on day 45) 176 % of control; (dose: 50.0 mg/kg/injection, schedule: Q01DX009 (sc), vehicle: saline, evaluated on day 60) 162 % of control; under setting [1], 141 % of control; (dose: 200.0 mg/kg/injection, schedule: Q01DX009 (sc), vehicle: saline, evaluated on day 30) 141 and 206 % of control; (dose: 200.0 mg/kg/injection, schedule: Q01DX009 (sc), vehicle: saline, evaluated on day 45) 278 % of control; (dose: 200.0 mg/kg/injection, schedule: Q01DX009 (sc), vehicle: saline, evaluated on day 60) 174 % of control. The T/C under setting [4] is 139 % of control.

On to `O=C(NO)c1cc(O)c(O)c(O)c1`, for which the T/C is, setting by setting: (dose: 200.0 mg/kg/injection, schedule: Q01DX009 (ip), vehicle: distilled water + Tween-80) 141 % of control; (dose: 400.0 mg/kg/injection, schedule: Q01DX009 (ip), vehicle: distilled water + Tween-80) 140 % of control.

For `O=C(O)c1cc(=O)[nH]c(=O)[nH]1`, the survivor count is recorded as 6 of 10 under setting [2]; 5 of 10 (dose: 180.0 mg/kg/injection, schedule: Q01DX Z (sc), vehicle: saline); 5 of 10 (dose: 500.0 mg/kg/injection, schedule: Q01DX Z (sc), vehicle: saline); 5 of 10 (dose: 833.0 mg/kg/injection, schedule: Q01DX Z (sc), vehicle: saline).

Consider `COc1cc([C@@H]2c3cc4c(cc3[C@H](O)[C@H]3COC(=O)[C@H]23)OCO4)cc(OC)c1OC`, for which the survivor count is 2 of 10 (dose: 3.0 mg/kg/injection, schedule: Q01DX Z (sc), vehicle: methylcellulose (MC)); 1 of 10 (dose: 5.0 mg/kg/injection, schedule: Q01DX Z (sc), vehicle: methylcellulose (MC)); 3 of 10 (dose: 8.4 mg/kg/injection, schedule: Q01DX Z (sc), vehicle: methylcellulose (MC)); 2 of 10 (dose: 14.0 mg/kg/injection, schedule: Q01DX Z (sc), vehicle: methylcellulose (MC)); 1 of 10 (dose: 23.0 mg/kg/injection, schedule: Q01DX Z (sc), vehicle: methylcellulose (MC)); 0 of 10 (dose: 39.0 mg/kg/injection, schedule: Q01DX Z (sc), vehicle: methylcellulose (MC)). Further, the survivor count (dose: 65.0 mg/kg/injection, schedule: Q01DX Z (sc), vehicle: methylcellulose (MC)) is 0 of 10.

The record behind these values is PubChem BioAssay AID258 (DTP/NCI, 2004).
